From publication doi:10.1101/2024.12.09.627393
No constants are given. Whether binding was seen depends on the method and setting.

The chains behind the UniProt entries cited, without tags or fusion partners. Where a name states a change or a piece, a line headed by the entry shows the natural chain unless it says otherwise. Residues count along the entry.
UniProt Q9BXF3, residues 424-538: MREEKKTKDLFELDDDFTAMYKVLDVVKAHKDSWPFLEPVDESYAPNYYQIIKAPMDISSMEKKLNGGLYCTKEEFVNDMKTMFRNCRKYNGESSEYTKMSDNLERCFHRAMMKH

Target: CECR2 bromodomain (CECR2-BRD), wild type, GST tag cleaved (human) (UniProt Q9BXF3)
Assay: AUC; sedimentation velocity, 35,000 rpm, 15 hours, 5°C; CECR2-BRD 5.2–25.1 μM alone (apo) and mixed with acetylated H3 and H4 peptides at 1:0.5 to 1:2; 150 mM NaCl, 20 mM NaPO4 pH 7.0, 1 mM TCEP; both purified

In the case of “CECR2 bromodomain (CECR2-BRD), wild type, GST tag cleaved (from UniProt Q9BXF3-1 424-538) (domain or fragment)”, the binding is reported as “no binding (tested: 5.2–25.1 μM)”.
